PubChem BioAssay AID504810 (National Center for Advancing Translational Sciences (NCATS), 2011)
Among all 330,000 compounds or so, about 670 (0.2%) were called active. This list was built around the results that the source calls inconclusive (neither active nor inactive); the mix of calls is not that of the screen.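 The calls were made as follows: active = activity change below a set negative limit, meaning inhibition stronger than a set level (cut at about -70% in these data); inconclusive = activity change between two set negative limits; inactive = the rest.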

Sequences of proteins named here, by UniProt entry; tags and fusion partners are left off.
UniProt P16473, whole entry, looked up: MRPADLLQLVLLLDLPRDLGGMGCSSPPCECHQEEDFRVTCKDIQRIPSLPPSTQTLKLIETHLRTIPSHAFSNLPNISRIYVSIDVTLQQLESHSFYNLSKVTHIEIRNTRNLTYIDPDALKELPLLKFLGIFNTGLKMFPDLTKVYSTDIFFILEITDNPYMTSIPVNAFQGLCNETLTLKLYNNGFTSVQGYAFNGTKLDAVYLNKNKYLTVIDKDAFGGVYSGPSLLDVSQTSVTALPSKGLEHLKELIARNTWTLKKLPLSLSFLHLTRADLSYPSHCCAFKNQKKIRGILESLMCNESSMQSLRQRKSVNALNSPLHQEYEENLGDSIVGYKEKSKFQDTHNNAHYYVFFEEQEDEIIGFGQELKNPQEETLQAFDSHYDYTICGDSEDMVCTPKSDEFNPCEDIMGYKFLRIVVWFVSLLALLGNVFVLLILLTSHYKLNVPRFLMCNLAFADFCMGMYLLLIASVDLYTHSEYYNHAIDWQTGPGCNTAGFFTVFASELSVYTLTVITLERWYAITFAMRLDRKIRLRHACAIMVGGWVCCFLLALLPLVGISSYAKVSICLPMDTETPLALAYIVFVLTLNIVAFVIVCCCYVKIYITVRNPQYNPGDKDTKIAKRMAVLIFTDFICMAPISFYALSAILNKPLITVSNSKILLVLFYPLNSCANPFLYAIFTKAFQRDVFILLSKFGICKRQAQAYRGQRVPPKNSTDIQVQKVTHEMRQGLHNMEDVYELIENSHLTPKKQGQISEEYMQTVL

What follows are compounds tested against Thyrotropin receptor (Homo sapiens) (UniProt P16473) (assay: Antagonists of the Thyroid Stimulating Hormone Receptor: HTS campaign). Conditions: TSHR-expressing cells, TSH-stimulated cAMP HTRF, 2 h; at 11.5 µM; hits give low values.
In short: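 TSHR-expressing cells, 200/well, pre-treated with compound, then stimulated with EC80 TSH (4nM final) for 2 hours at 37 deg C. cAMP measured by competitive HTRF: anti-cAMP cryptate antibody in lysis buffer plus cAMP-d2, read after 30 minutes at room temperature.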
% is scaled to controls: 0 for no effect and ±100 for the full control effect.

| SMILES | activity change, negative = inhibition |
| --- | --- |
| N#C/C(=N\Nc1cccc([N+](=O)[O-])c1)C(=O)c1ccc(Br)cc1 | inconclusive: -62.1% |
| Cc1cc(C(=O)CSc2nnc(-c3cccc(F)c3)n2N)c(C)n1Cc1ccc2c(c1)OCO2 | inconclusive: -51.7% |
| Clc1cccc(-c2ccc(-c3nc4ccccn4c3NCc3ccccc3)cc2)c1 | inconclusive: -61.5% |
| CCOc1ccc(-c2csc(/C(C#N)=C\c3ccc(O)c([N+](=O)[O-])c3)n2)cc1 | active: -83.4% |
| O=C(Nc1nc(-c2ccc(S(=O)(=O)N3CCCCCC3)cc2)cs1)c1ccccc1 | inconclusive: -52.1% |
| COC(=O)c1sc(=S)n(-c2ccccc2OC)c1N | inconclusive: -52.3% |
| COCCCn1c(=O)c2sccc2n(Cc2cccc(C)c2)c1=O | active: -131% |
| COc1ccc(OC(C)C(=O)N(C)Cc2nc(-c3ccc(OC)cc3)no2)cc1 (stereo not given) | inactive: -16.7% |
| O=C1c2ccccc2C(=O)N1CCCCSc1nnnn1-c1ccccc1 | active: -72.3% |
| COc1cccc(C(=O)Nc2ccc3nc(N4CCN(c5ncccn5)CC4)cc(C)c3c2)c1OC | inconclusive: -54.9% |
| CCOc1ccc(/C=C/C(=O)c2cc(Br)ccc(=O)c2O)cc1 | inconclusive: -61.8% |
| COc1ccc(OC)c(/C=N/NC(=O)c2ccc(N(C)S(=O)(=O)c3ccccc3)cc2)c1 | inactive: -39.3% |
| Cc1ccccc1NC(=S)c1ccc2ccccc2n1 | inactive: -25.3% |
| CCCCCC/C(C)=C1/SC(=S)NC1=O | active: -84.6% |
| Cc1cc(NC(=O)CCS(=O)(=O)c2nc(-c3ccccc3)cc(C(F)(F)F)n2)no1 | inconclusive: -56.8% |
| COc1cc2[nH]c(C(=O)Nc3ccc(F)cc3)cc2c(OC)c1OC | active: -77.7% |
| CC(C)(c1cc(Br)c(O)c(Br)c1)c1cc(Br)c(O)c(Br)c1 | inconclusive: -54.3% |
| CCOC(=O)c1ccc(NC(=O)C2CCCN(S(=O)(=O)c3ccc(F)cc3)C2)cc1 (stereo not given) | inconclusive: -53.4% |
| Cc1cccc(-c2noc(CCCC(=O)NCC3CCCO3)n2)c1 (stereo not given) | inactive: 12.4% |
| COCCNC(=O)c1onc(CSc2ccc(F)cc2)c1C(=O)NCCOC | inconclusive: -63.5% |
| CC(C)(C)c1cc(/C=C(\C#N)C(N)=S)cc(C(C)(C)C)c1O | inconclusive: -68.9% |
| COCCN(CCOC)S(=O)(=O)c1ccc(C(=O)NC2CCN(Cc3ccccc3)CC2)cc1 | inactive: -13.4% |

| SMILES | activity change, negative = inhibition |
| --- | --- |
| O=C1Nc2ccccc2N(O)N1c1cc(-c2cccc(Cl)c2)no1 | inactive: 31.9% |
| CC(CCc1ccccc1)NC(=O)C1CCN(c2nnc(-n3cccc3)s2)CC1 (stereo not given) | inactive: 0.637% |
| O=c1c(C(c2ccccc2)c2c(O)sc3ccccc3c2=O)c(O)sc2ccccc12 | inconclusive: -56.7% |
| Cc1ccc(F)cc1CNC(=O)c1cc(COc2ccc3ncccc3c2)on1 | inactive: -48% |
| Cc1cc(/C=C2\SC(=S)N(C)C2=O)c(C)n1-c1ccc(O)cc1 | inconclusive: -62.8% |
| CCc1cccc(C)c1NC(=S)NCCc1c(C)[nH]c2ccc(C)cc12 | inactive: -0.321% |
| O=C(O)c1cccc(NC2=C(Cl)C(=O)c3ccccc3C2=O)c1 | active: -83.4% |
| CCSc1nc2ccccc2n1C(=O)c1ccc(S(=O)(=O)N2CCCCCC2)cc1 | inactive: 18.7% |
| CCN(C(=O)CSc1nnc(CNc2cccc(OC)c2)n1C1CCCCC1)C1CCS(=O)(=O)C1 (stereo not given) | inconclusive: -56.8% |
| CCOc1ccc(CCNC(=O)c2nn(C)c3c2CS(=O)(=O)c2ccccc2-3)cc1 | inactive: 1.61% |
| CCC(=O)NC(Nc1sc2c(c1C(=O)OC)CCC2)C(Cl)(Cl)Cl (stereo not given) | active: -72% |
| CC(C)c1ccc(OCC(=O)Nc2cccc3c2CCCC3)cc1 | inconclusive: -58.4% |
| O=C(NCCc1ccc(Cl)cc1Cl)c1cc([N+](=O)[O-])c[nH]c1=O | inconclusive: -56.7% |
| CCN(CC)c1ccc(NC(=O)c2cc3ccccc3o2)c(C)c1 | inconclusive: -52.1% |
| O=C(NCc1cccnc1)/C(=C\c1ccc(-c2ccc(Cl)c(Cl)c2)o1)S(=O)(=O)c1ccccc1 | inconclusive: -50% |
| O=C(NC(=S)N1CCN(c2ccccc2)CC1)c1c(F)cccc1F | inconclusive: -51.1% |
| CCOC(=O)c1c(NC(=O)/C=C/C(=O)O)sc(C)c1-c1ccc(C)c(C)c1 | inconclusive: -57.6% |
| COc1ccc(NS(=O)(=O)c2ccc3oc(Nc4ccc5c(c4)OCCO5)nc3c2)cc1 | inconclusive: -52.4% |
| COc1ccc(/C=C(\C#N)C(=O)Nc2cc(S(=O)(=O)N3CCOCC3)ccc2N2CCCC2)cc1 | inactive: -7.04% |
| O=C(Nc1cccc(F)c1)c1ccc(CSc2ccccc2)o1 | inconclusive: -50.4% |
| CC(=O)Nc1cccc(NC(=O)CSc2nnc(NC(=O)c3ccco3)s2)c1 | inactive: 0.842% |
| O=C(Cn1nc(Cc2cccnc2)c2ccccc2c1=O)NCC1COc2ccccc2O1 (stereo not given) | inconclusive: -61.7% |

Reformatted with tabs: entries from further up.
SMILES	activity change, negative = inhibition
N#C/C(=N\Nc1cccc([N+](=O)[O-])c1)C(=O)c1ccc(Br)cc1	inconclusive: -62.1%
COc1ccc(OC(C)C(=O)N(C)Cc2nc(-c3ccc(OC)cc3)no2)cc1 (stereo not given)	inactive: -16.7%
COc1ccc(OC)c(/C=N/NC(=O)c2ccc(N(C)S(=O)(=O)c3ccccc3)cc2)c1	inactive: -39.3%
Cc1ccccc1NC(=S)c1ccc2ccccc2n1	inactive: -25.3%
Cc1cc(NC(=O)CCS(=O)(=O)c2nc(-c3ccccc3)cc(C(F)(F)F)n2)no1	inconclusive: -56.8%
CC(C)(c1cc(Br)c(O)c(Br)c1)c1cc(Br)c(O)c(Br)c1	inconclusive: -54.3%
CCOC(=O)c1ccc(NC(=O)C2CCCN(S(=O)(=O)c3ccc(F)cc3)C2)cc1 (stereo not given)	inconclusive: -53.4%
Cc1cccc(-c2noc(CCCC(=O)NCC3CCCO3)n2)c1 (stereo not given)	inactive: 12.4%
CC(C)(C)c1cc(/C=C(\C#N)C(N)=S)cc(C(C)(C)C)c1O	inconclusive: -68.9%
COCCN(CCOC)S(=O)(=O)c1ccc(C(=O)NC2CCN(Cc3ccccc3)CC2)cc1	inactive: -13.4%
CC(CCc1ccccc1)NC(=O)C1CCN(c2nnc(-n3cccc3)s2)CC1 (stereo not given)	inactive: 0.637%
O=c1c(C(c2ccccc2)c2c(O)sc3ccccc3c2=O)c(O)sc2ccccc12	inconclusive: -56.7%
Cc1cc(/C=C2\SC(=S)N(C)C2=O)c(C)n1-c1ccc(O)cc1	inconclusive: -62.8%
CCc1cccc(C)c1NC(=S)NCCc1c(C)[nH]c2ccc(C)cc12	inactive: -0.321%
CC(C)c1ccc(OCC(=O)Nc2cccc3c2CCCC3)cc1	inconclusive: -58.4%
CCN(CC)c1ccc(NC(=O)c2cc3ccccc3o2)c(C)c1	inconclusive: -52.1%
O=C(NC(=S)N1CCN(c2ccccc2)CC1)c1c(F)cccc1F	inconclusive: -51.1%
COc1ccc(/C=C(\C#N)C(=O)Nc2cc(S(=O)(=O)N3CCOCC3)ccc2N2CCCC2)cc1	inactive: -7.04%
O=C(Nc1cccc(F)c1)c1ccc(CSc2ccccc2)o1	inconclusive: -50.4%
CC(=O)Nc1cccc(NC(=O)CSc2nnc(NC(=O)c3ccco3)s2)c1	inactive: 0.842%

Next part:

| SMILES | activity change, negative = inhibition |
| --- | --- |
| COc1ccccc1/C=C/CN1CCN(Cc2ccc(C)o2)C(CCO)C1 (stereo not given) | inactive: -1.11% |
| COc1ccccc1CNS(=O)(=O)c1cc(-c2cc(C)no2)ccc1C(C)C | active: -80.1% |
| O=C(CSc1nn(-c2ccccc2)c(=S)s1)NC1CCS(=O)(=O)C1 (stereo not given) | inactive: -6.31% |
| CC1=C(C(=O)OCCC#N)C(c2cc3c(cc2Br)OCO3)NC(=O)N1 (stereo not given) | inconclusive: -53.1% |
| CCOC(=O)N1CCN(C(=O)c2ccc3c(c2)NC(=O)/C(=C\c2ccc(OC)c(OC)c2)S3)CC1 | active: -133% |
| O=C(Cn1nc(Cc2cccnc2)c2ccccc2c1=O)NCc1ccc2c(c1)OCO2 | inconclusive: -50.5% |
| CCCC(=O)Nc1nnc(CCc2ccccc2)s1 | active: -88.9% |
| COc1ccc(Nc2nc3ccccc3s2)cc1 | inactive: 4.61% |
| O=C(NCc1ccco1)c1sc(=S)n2c1[nH]c(=O)c1ccccc12 | inconclusive: -62.5% |
| O=C(C1CCCN(Cc2ccccc2[N+](=O)[O-])C1)N1CCCCC1 (stereo not given) | inconclusive: -69.2% |
| CC1CCN(S(=O)(=O)c2cccc(C(=O)N3CCN(c4ccc(F)cc4)CC3)c2)CC1 | inconclusive: -59.8% |
| CCc1ccccc1NC(=O)C1CCCN(S(=O)(=O)c2ccc3c(c2)CC(C)N3C(C)=O)C1 (stereo not given) | inconclusive: -53.2% |
| CS(=O)(=O)c1ccc(N2CCN(c3ccccn3)CC2)c([N+](=O)[O-])c1 | active: -114% |
| O=C(NCc1ccccc1)c1c(Cl)nc(Cl)c(Cl)c1Cl | inconclusive: -61.6% |
| N#Cc1c(N(CCO)CCO)nc(N)c2c(N)nc3c(c12)CC(=O)N3CC1CCCO1 (stereo not given) | inactive: 6.73% |
| O=C(NC(NC(=S)Nc1ccc(Cl)cc1Cl)C(Cl)(Cl)Cl)c1cccc([N+](=O)[O-])c1 (stereo not given) | inconclusive: -56.6% |
| CC(C)C(=O)N1CCN(c2ccc(NC(=O)c3ccc4c(c3)OCCO4)cc2Cl)CC1 | inconclusive: -68.9% |
| O=C(Nc1ccccc1)Nc1cc(Cl)cc(Cl)c1 | inconclusive: -58.7% |
| O=c1[nH]c(=O)n(Cc2ccco2)c2c1C(C(F)(F)F)(C(F)(F)F)N=C(c1ccc(F)cc1)N2 | inconclusive: -55.4% |
| O=C(Nc1ccc2nc(-c3cccs3)[nH]c2c1)c1cccs1 | inactive: -2.48% |
| O=C(Nc1ccc2oc(-c3ccccc3F)nc2c1)c1ccc2c(c1)OCCO2 | inconclusive: -50.1% |
| N#Cc1ccc(Nc2nc(-c3ccc(O)cc3O)cs2)cc1C(F)(F)F | inconclusive: -62.3% |

Given bar-delimited: entries from further up.
SMILES | activity change, negative = inhibition
CCc1ccccc1NC(=O)C1CCCN(S(=O)(=O)c2ccc3c(c2)CC(C)N3C(C)=O)C1 (stereo not given) | inconclusive: -53.2%
O=C(Nc1ccccc1)Nc1cc(Cl)cc(Cl)c1 | inconclusive: -58.7%

Going on with the list:

| SMILES | activity change, negative = inhibition |
| --- | --- |
| CCOC(=O)c1c(NC(=O)/C=C/C(=O)O)sc(C)c1-c1ccc(Cl)cc1 | inconclusive: -55% |
| CC(C)N(CCC(=O)c1ccc2ccccc2c1)Cc1ccccc1 | inconclusive: -50.3% |
| CCCCSc1nc2sc3c(c2c(=O)n1-c1ccc(C)cc1)CCN(C)C3 | active: -74% |
| CCn1nc(C)cc1C(=O)NC1CCCc2c1cnn2-c1ccc(C)c(C)c1 (stereo not given) | inconclusive: -62.5% |
| CS(=O)(=O)c1nc(-c2ccc(Br)cc2)cc(-c2ccccc2)c1C#N | inconclusive: -61.8% |
| CC(=O)NNc1nc2ccccc2s1 | inactive: -18.9% |
| Cc1ccc(S(=O)(=O)Nc2ccc(N=Nc3ccc(O)cc3)cc2)cc1 | active: -74.9% |
| CC1=Nc2ccc3ccccc3c2C1(C)C | inactive: -8.42% |
| Cc1ccc(-c2nc3ncccc3o2)cc1NC(=O)C(C)(C)C | inactive: 3.97% |
| O=C(COc1ccc2ccc(=O)oc2c1)Nc1cccc(S(=O)(=O)N2CCCCC2)c1 | inactive: 17.3% |
| COc1ccccc1C(=O)NCCC(=O)Nc1ccc(OC(F)(F)F)cc1 | active: -95.4% |
| CN(CC(O)COc1ccc(S(=O)(=O)N2CCOCC2)cc1Cl)C1CCCCC1 (stereo not given) | inconclusive: -51.3% |
| CC(C)n1c(=S)[nH]c2scc(-c3cccs3)c2c1=O | inactive: 14.9% |
| COc1ccc(NC(=O)c2cccc(N3C(=O)C4C5C=CC(C5)C4C3=O)c2)c(OC)c1 (stereo not given) | inactive: 16.5% |
| COc1ccccc1C(CNC(=O)c1cc(S(=O)(=O)N2CCOCC2)ccc1C)N1CCCC1 (stereo not given) | inactive: 4.5% |
| CCOC(=O)c1ccc(N2CSC3=C(C#N)C(c4cccs4)CC(=O)N3C2)cc1 (stereo not given) | inactive: -0.735% |
| O=C(COC(=O)c1ccccc1C(=O)c1ccc(Cl)c([N+](=O)[O-])c1)NC1CCCCCC1 | inconclusive: -64.8% |
| COc1ccc(/C=C/C(=O)Nc2ccc(C)c(S(=O)(=O)N3CCOCC3)c2)cc1 | inactive: -32% |
| CCOc1ccc(NS(=O)(=O)c2cc(NC(=O)c3cccc(C)c3)ccc2Cl)cc1 | inconclusive: -65.7% |
